Consider one substance from publication PMC3777878.

By UniProt entry, the sequences of proteins in these tests, tags left out. Where a name states a change or a piece, a line headed by the entry shows the natural chain unless it says otherwise.
UniProt Q62083: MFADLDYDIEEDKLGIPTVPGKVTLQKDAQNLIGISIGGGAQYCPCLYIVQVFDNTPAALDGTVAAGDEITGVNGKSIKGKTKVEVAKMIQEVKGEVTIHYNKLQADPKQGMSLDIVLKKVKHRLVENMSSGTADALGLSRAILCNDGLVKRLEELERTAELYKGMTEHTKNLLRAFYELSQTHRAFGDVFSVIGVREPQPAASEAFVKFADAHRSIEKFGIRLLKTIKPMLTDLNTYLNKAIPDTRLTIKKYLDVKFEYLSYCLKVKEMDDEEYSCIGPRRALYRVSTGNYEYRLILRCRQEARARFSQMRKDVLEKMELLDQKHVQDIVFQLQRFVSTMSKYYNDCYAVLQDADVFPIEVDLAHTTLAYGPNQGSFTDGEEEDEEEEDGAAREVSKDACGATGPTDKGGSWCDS
UniProt Q8VI51: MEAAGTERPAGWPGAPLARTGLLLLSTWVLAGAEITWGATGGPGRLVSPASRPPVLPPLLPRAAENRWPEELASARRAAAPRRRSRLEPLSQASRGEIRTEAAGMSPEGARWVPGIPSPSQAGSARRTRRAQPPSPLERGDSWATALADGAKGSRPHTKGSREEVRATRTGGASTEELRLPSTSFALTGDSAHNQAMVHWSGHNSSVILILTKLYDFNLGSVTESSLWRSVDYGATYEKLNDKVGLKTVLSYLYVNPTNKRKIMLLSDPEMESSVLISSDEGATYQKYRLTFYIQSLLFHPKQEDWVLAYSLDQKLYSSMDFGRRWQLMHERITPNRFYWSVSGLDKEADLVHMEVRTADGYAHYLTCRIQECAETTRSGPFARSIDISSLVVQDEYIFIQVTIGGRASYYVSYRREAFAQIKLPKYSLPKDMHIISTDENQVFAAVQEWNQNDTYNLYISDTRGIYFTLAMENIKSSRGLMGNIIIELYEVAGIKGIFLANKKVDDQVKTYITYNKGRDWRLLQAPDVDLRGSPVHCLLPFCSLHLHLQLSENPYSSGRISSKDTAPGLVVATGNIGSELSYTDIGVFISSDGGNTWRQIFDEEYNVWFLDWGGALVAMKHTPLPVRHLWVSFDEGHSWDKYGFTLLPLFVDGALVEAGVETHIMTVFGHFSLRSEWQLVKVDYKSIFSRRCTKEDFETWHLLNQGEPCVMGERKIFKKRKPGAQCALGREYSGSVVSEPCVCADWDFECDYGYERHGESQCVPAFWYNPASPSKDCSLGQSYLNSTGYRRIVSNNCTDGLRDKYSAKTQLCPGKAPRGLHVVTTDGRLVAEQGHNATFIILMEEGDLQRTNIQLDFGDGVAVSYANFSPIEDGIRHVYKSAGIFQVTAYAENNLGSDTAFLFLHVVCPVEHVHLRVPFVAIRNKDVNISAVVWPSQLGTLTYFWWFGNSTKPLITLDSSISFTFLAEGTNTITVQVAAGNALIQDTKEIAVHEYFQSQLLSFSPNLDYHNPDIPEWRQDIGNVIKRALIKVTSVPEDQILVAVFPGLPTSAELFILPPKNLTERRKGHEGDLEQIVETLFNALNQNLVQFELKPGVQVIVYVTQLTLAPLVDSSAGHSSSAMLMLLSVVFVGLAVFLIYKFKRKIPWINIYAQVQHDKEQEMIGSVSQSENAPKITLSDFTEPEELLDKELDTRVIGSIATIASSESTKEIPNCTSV

These are yes or no findings as the source states them, for the method shown. In cells and extracts the contact can be indirect. A result given as binding can be weak or reduced; the word gives no strength.

The assay has as its target recombinant GST-PICK1 fusion protein (UniProt Q62083). The experiment in a line: pull-down; lysate of HEK293 cells expressing SORCS3 mixed with 15 µg GST-PICK1 (or 10 µg GST), overnight at 4°C; glutathione sepharose beads 5 h; washed in lysis buffer with 0.4 M NaCl without Triton X-100; only the target purified.

As to “SORCS3 (HEK293 cells stably expressing SORCS3) (from UniProt Q8VI51) (receptor)”, the binding entry is on record as “binds”.
